Paper PMC4568978
Results are given in words; binding and its absence hold for the method and conditions named. Binding seen in cells or lysates may run through a third protein. Some results given as binding are weak or reduced against the parent protein; the word gives no strength.

Amino acid sequences for entries named in this document (tags omitted). Residues count along the entry.
UniProt Q9JLF7, residues 27-859: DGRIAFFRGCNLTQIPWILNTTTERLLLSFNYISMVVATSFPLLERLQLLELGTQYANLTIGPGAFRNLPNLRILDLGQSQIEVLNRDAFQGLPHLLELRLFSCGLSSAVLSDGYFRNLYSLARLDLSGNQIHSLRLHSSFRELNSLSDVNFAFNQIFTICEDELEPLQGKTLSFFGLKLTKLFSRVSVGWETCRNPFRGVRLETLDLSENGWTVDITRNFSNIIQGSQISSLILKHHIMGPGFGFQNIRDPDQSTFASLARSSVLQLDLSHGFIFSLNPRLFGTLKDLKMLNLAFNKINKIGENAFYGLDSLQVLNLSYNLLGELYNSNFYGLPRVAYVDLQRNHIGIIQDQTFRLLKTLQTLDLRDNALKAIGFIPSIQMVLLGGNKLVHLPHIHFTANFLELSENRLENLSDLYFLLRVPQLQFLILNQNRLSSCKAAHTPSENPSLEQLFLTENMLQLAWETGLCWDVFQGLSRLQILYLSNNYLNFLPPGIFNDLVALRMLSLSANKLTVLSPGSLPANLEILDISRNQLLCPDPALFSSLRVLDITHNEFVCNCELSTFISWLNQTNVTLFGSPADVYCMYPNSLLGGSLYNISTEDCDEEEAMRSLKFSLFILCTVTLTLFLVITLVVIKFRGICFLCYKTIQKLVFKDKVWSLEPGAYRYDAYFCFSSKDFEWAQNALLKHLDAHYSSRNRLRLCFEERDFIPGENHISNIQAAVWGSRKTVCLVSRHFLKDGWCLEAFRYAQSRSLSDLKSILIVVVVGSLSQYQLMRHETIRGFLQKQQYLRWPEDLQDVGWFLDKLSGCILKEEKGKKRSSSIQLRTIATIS
UniProt P22366: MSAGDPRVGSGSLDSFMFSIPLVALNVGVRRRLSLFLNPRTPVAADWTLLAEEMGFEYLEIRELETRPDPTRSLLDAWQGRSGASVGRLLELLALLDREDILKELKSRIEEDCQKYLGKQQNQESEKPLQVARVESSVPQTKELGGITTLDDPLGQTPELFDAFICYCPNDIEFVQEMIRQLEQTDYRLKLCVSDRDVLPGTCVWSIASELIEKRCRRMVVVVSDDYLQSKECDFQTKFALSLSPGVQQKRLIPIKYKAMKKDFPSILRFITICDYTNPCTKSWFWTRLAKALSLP

Tests used:
[1] = target: T1, caveolin-1 (mouse (endogenous in peritoneal macrophages)) (UniProt P49817); experiment: co-IP; lysates of mouse peritoneal macrophages (aged; WT, Cav1-/- and Myd88-/-), with or without Vv-FlaB stimulation for 12 h; incubated with protein G-Sepharose beads and anti-Cav1, anti-TLR5 or anti-MyD88 antibodies; Western blotting
T1 sequence: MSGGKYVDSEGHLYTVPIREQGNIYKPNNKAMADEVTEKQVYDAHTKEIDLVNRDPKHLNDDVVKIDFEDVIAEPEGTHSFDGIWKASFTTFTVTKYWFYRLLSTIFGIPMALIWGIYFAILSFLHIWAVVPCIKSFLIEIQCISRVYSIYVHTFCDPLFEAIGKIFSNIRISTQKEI

[2] = target: Toll-like receptor 5 (mouse (endogenous in peritoneal macrophages)) (UniProt Q9JLF7); experiment: as above

| Substance | binding [1] | binding [2] |
| --- | --- | --- |
| Toll-like receptor 5 (from UniProt Q9JLF7 27-859) | binds |  |
| MyD88 (from UniProt P22366 1-296) |  | binds |
